Assay results taken from the supplement of paper PMC10849652.
This is one part of the list.

By UniProt entry, the sequences of proteins in these tests, tags left out. Where a name states a change or a piece, a line headed by the entry shows the natural chain unless it says otherwise.
UniProt Q9Y575: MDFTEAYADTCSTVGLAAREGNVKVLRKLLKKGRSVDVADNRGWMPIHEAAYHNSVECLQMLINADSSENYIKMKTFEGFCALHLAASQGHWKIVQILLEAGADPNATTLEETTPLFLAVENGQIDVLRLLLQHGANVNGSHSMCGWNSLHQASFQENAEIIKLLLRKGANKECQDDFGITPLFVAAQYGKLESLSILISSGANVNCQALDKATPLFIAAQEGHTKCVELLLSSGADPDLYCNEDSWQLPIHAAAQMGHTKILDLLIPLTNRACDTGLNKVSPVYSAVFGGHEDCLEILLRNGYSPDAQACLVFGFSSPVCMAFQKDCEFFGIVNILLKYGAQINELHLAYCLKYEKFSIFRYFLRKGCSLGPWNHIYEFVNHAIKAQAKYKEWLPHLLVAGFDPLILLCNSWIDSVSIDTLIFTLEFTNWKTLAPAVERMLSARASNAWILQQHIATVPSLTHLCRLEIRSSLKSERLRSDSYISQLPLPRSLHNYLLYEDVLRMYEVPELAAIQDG
UniProt Q96GX2: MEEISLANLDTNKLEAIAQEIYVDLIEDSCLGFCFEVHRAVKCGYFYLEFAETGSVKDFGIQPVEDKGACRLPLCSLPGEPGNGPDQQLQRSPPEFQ
UniProt P04424, whole entry, looked up: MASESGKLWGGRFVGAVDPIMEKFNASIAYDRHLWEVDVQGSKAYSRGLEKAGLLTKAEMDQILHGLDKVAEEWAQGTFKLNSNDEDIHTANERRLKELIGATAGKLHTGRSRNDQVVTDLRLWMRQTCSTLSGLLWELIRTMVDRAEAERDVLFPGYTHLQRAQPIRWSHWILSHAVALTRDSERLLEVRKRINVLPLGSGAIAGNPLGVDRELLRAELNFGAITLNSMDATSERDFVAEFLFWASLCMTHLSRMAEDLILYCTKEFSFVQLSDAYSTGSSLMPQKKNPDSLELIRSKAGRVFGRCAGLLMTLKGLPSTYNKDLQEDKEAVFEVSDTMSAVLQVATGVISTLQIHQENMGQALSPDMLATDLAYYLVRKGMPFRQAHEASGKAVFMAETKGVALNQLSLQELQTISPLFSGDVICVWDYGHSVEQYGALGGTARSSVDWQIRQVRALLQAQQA
UniProt Q8IZT6: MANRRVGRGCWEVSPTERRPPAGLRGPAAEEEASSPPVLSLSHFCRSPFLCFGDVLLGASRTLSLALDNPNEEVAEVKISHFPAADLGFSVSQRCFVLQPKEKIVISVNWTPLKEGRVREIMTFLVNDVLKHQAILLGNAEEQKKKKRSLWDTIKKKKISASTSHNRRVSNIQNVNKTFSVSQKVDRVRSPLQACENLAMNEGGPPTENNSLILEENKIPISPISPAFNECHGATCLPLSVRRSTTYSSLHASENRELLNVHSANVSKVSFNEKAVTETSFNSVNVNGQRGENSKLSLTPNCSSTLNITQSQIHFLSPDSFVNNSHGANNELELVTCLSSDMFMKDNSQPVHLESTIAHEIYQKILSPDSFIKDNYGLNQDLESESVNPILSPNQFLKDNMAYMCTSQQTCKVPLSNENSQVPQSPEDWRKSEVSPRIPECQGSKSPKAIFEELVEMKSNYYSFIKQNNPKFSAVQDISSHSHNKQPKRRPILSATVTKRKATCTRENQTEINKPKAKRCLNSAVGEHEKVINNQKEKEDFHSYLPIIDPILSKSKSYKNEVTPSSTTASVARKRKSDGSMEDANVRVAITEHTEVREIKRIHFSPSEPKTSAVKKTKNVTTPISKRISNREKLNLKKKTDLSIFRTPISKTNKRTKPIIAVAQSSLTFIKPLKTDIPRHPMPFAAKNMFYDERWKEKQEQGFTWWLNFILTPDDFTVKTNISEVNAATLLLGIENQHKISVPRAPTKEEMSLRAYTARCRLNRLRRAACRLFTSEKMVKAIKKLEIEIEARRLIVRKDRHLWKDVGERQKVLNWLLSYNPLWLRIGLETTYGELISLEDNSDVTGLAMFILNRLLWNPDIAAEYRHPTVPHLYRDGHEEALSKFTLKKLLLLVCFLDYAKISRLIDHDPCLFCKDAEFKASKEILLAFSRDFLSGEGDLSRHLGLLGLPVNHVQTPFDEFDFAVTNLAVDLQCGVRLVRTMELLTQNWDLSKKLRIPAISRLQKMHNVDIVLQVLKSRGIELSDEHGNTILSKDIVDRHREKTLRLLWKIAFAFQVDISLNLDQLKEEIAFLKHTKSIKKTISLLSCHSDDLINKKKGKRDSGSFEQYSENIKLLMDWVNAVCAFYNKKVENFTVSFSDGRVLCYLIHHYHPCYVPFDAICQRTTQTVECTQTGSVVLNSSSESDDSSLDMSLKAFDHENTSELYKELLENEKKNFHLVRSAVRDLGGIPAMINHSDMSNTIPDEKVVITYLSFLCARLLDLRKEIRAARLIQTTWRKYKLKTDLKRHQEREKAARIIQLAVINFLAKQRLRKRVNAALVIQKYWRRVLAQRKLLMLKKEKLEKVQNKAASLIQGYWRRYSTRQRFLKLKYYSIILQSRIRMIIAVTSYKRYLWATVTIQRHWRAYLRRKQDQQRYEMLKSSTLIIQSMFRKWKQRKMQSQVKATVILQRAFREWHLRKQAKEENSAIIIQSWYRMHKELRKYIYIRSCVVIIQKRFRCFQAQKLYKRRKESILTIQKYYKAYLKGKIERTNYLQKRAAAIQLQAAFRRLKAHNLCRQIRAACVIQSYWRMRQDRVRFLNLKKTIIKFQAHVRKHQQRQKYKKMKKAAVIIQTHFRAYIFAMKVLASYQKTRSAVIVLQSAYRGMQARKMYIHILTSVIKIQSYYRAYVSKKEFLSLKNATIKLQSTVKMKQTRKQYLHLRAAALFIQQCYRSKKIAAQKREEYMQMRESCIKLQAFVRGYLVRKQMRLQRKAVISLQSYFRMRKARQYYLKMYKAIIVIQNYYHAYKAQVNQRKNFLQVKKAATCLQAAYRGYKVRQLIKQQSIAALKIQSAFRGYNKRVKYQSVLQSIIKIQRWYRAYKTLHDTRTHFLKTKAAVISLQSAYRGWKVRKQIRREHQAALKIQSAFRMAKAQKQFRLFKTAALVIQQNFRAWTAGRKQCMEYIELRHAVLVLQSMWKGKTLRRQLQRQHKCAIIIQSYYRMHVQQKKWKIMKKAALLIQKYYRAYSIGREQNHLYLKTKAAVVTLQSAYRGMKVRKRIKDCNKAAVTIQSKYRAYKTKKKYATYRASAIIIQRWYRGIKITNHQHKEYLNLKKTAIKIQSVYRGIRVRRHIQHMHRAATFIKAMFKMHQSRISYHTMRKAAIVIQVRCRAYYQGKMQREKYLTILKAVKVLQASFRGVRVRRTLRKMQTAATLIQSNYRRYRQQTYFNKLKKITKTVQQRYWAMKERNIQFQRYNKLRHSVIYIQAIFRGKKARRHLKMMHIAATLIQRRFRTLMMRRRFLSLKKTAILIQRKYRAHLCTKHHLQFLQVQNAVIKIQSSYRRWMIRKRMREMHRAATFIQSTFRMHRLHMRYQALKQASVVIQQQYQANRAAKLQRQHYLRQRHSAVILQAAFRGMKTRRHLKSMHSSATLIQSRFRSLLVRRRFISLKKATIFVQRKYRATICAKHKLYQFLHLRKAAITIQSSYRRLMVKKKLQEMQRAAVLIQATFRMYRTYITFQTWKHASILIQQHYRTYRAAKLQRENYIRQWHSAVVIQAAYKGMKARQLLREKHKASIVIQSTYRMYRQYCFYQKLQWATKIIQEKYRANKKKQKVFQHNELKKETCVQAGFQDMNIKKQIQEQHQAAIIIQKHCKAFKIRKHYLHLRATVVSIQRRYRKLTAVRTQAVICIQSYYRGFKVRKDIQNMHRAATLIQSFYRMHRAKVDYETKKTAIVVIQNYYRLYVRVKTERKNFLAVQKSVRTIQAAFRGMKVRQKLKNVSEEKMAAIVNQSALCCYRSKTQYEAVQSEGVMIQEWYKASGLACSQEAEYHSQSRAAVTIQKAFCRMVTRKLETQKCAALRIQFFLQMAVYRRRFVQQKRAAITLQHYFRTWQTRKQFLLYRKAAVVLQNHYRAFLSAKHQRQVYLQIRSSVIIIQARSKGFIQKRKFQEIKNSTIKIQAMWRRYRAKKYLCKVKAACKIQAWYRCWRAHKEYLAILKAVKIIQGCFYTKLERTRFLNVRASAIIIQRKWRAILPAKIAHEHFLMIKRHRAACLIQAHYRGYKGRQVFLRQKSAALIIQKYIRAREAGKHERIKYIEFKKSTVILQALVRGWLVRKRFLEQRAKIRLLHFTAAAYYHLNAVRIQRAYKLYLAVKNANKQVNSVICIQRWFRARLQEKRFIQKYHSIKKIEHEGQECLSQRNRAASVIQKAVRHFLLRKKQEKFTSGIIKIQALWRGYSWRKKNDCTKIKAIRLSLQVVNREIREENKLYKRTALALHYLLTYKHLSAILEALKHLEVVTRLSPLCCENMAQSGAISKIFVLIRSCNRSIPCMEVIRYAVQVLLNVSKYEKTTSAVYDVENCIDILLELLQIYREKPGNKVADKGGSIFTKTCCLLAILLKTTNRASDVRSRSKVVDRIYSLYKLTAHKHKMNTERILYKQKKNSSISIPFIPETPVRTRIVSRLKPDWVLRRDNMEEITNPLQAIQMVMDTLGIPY
UniProt O43681: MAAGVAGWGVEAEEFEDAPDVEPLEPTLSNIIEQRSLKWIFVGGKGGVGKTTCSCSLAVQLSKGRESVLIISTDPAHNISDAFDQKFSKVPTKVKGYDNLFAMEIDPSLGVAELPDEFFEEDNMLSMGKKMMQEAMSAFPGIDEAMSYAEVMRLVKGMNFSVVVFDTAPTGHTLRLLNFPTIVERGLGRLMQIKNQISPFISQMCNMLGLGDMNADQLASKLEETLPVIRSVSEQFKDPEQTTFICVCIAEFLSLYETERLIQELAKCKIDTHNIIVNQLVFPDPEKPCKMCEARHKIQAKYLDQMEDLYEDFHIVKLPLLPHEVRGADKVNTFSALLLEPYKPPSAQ
UniProt P27449, whole entry, looked up: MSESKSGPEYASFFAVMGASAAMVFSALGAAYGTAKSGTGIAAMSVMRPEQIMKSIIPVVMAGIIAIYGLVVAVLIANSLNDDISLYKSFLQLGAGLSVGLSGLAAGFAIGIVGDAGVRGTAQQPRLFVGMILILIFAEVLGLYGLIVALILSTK
UniProt P35670: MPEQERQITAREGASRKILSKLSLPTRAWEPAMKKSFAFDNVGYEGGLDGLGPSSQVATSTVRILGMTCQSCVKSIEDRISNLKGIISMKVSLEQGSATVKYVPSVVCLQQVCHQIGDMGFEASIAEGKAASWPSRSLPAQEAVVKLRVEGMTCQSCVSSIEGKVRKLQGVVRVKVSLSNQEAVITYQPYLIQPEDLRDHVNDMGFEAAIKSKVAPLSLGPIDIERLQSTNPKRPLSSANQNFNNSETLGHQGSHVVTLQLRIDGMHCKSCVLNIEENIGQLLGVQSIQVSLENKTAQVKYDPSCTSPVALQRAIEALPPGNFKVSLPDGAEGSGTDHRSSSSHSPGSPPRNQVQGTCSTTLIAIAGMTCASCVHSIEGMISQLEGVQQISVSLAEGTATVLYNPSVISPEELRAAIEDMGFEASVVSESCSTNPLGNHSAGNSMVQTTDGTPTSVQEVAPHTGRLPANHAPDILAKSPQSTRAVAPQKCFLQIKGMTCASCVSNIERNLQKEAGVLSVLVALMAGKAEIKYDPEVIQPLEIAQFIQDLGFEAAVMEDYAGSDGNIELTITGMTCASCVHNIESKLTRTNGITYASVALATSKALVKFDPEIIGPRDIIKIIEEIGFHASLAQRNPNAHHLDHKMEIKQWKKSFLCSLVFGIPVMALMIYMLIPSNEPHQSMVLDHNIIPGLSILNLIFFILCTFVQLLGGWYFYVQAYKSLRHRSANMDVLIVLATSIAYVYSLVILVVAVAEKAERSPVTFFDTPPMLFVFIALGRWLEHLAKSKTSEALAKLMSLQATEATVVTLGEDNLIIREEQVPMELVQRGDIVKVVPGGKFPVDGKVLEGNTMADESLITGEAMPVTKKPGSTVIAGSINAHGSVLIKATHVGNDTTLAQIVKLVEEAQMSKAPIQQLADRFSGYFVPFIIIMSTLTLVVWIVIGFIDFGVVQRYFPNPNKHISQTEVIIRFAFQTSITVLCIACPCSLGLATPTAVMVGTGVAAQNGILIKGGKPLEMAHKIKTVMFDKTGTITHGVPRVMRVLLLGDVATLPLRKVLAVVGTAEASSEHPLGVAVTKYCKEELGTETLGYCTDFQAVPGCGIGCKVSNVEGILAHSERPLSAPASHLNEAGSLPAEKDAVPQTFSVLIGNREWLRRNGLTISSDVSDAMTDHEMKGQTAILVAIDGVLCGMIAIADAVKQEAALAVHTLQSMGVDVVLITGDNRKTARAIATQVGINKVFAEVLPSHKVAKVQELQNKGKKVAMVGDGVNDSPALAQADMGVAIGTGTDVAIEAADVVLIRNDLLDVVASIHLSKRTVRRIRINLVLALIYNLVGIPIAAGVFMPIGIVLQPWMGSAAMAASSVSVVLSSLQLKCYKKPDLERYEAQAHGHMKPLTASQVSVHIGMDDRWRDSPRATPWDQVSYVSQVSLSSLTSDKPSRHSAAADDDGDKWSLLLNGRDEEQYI

These targets were tested with CCCS(=O)(=O)Nc1ccc(F)c(C(=O)c2c[nH]c3ncc(-c4ccc(Cl)cc4)cc23)c1F [vemurafenib] (assay: log2 fold change, soluble protein after heating vs DMSO (PISA); higher = thermal stabilisation; K562 lysate, 10 uM; active = over 0.2 and 3.5 SD of the protein, either way, in both replicates (recomputed)).
Outline: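 K562 pellets were dounce-homogenised in PBS pH 7.4 with 1 mM MgCl2, and the crude extract at 1 mg/mL protein was treated with 10 μM compound for 30 min. Aliquots were heated for 3 min across 48°C-58°C, pooled, and brought to 0.5% NP-40 at 4°C; soluble protein was the supernatant after 21,000xg for 90 min. Soluble protein was quantified by TMTpro 16plex LC-MS/MS with channel sums equalised, and reported as log2 fold change in thermal stability against DMSO controls, with values from duplicates.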

log2 fold change, inactive:
ASB3 isoform 3 (UniProt Q9Y575) 0.122
ATRN (UniProt O75882) -0.04
ATP5F1A (UniProt P25705) -0.018
ASCC2 (UniProt Q9H1I8) 0.037
ATXN7L3B (UniProt Q96GX2) 0.006
ASL (UniProt P04424) 0.001
ATG10 (UniProt Q9H0Y0) 0.026
ATP5F1B (UniProt F8W0P7) -0.141
ATG14 (UniProt Q6ZNE5) 0.102
ATF7IP2 (UniProt Q5U623) 0.062
B3GLCT (UniProt Q6Y288) 0.11
ATL2 (UniProt Q8NHH9) -0.022
ASPM (UniProt Q8IZT6) 0.071
ATE1 isoform 2 (UniProt O95260) 0.118
ASNA1 (UniProt O43681) -0.055
AUNIP isoform 2 (UniProt Q9H7T9) -0.11
ATAD1 (UniProt Q8NBU5) 0.052
AURKB isoform 5 (UniProt Q96GD4) 0.165
ATP6V0C (UniProt P27449) -0.033
ATXN1L (UniProt P0C7T5) -0.008
ATP7B (UniProt P35670) 0.047
ATXN2L (UniProt Q8WWM7) -0.075
ATXN2 (UniProt F8WB05) -0.153

A portion from the list above:
log2 fold change, inactive:
ATAD1 (UniProt Q8NBU5) 0.052
AURKB isoform 5 (UniProt Q96GD4) 0.165
